The values below come from patent US5342771A, “Functionalized imidazolinone haptens and protein conjugates thereof useful in assays for the detection of imidazolinone herbicides” (American Cyanamid Company, priority 1993, dated 1994).

The test system of this data set is antibody. In words: ELISA standard curve with imazaquin standards (OD 650). It counts as binding, New Zealand white rabbits. To be noted: mean of triplicate.

Take `CC(C)C1(C)N=C(c2nc3ccccc3cc2C(=O)O)NC1=O` (stereo not shown) [Imazaquin, 2-(4-isopropyl-4-methyl-5-oxo-2-imidazolin-2-yl)-3-quinolinecarboxylic acid]: the “OD 650 Reading” value runs as follows: (imazaquin concentration 0.39 ng/mL) 1.452; (imazaquin concentration 0.78 ng/mL) 1.334; (imazaquin concentration 1.56 ng/mL) 1.184; (imazaquin concentration 3.12 ng/mL) 1.064; (imazaquin concentration 6.25 ng/mL) 0.860; (imazaquin concentration 12.5 ng/mL) 0.734. Moreover, the “OD 650 Reading” value (imazaquin concentration 25.0 ng/mL) is listed as 0.564.
